Results from patent publication US11077139B2, “Combination of an arsenic compound and at least one retinoid for treating acute myeloid leukemia” (INSERM (Institut National de la Sante et de la Recherche …, priority 2013, dated 2021).
At least one structure is not confirmed: it was looked up by name or label, or the drawing left a doubt.

System: OCI-AML3 cells (mutated NPM-1)
Assay type: cell-based
Settings: OCI-AML3 versus KG1a, ML-2 and THP-1 cells, up to 48 h

CC1=C(/C=C/C(C)=C/C=C/C(C)=C/C(=O)O)C(C)(C)CCC1 [RA, retinoic acid]
sensitivity for growth suppression and/or cell death: much more sensitive
